Results: the supplement of paper PMC10849652
Some of the results follow.

By UniProt entry, the sequences of proteins in these tests, tags left out. Where a name states a change or a piece, a line headed by the entry shows the natural chain unless it says otherwise.
UniProt Q96JJ7: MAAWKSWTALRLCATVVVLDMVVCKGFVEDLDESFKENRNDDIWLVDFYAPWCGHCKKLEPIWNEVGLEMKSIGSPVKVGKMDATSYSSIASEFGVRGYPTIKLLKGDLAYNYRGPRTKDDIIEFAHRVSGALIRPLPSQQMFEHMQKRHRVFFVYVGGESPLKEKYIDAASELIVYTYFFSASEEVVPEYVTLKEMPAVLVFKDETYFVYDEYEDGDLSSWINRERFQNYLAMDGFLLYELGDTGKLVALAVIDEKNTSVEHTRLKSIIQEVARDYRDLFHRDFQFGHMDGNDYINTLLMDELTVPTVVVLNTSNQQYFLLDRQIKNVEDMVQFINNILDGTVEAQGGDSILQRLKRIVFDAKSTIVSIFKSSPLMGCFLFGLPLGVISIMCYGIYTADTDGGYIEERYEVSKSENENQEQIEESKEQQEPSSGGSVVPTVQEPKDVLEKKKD
UniProt Q9H497: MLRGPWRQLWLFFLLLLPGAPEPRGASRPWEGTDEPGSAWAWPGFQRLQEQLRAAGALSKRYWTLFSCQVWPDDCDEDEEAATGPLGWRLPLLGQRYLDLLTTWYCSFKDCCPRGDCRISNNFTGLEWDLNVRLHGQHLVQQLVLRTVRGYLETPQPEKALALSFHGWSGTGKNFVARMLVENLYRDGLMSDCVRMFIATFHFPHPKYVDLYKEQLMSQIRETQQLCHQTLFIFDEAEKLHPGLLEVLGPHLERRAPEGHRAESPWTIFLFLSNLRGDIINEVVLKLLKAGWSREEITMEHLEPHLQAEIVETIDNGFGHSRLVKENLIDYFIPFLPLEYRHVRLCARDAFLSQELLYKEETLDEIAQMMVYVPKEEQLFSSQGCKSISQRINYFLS
UniProt O14773: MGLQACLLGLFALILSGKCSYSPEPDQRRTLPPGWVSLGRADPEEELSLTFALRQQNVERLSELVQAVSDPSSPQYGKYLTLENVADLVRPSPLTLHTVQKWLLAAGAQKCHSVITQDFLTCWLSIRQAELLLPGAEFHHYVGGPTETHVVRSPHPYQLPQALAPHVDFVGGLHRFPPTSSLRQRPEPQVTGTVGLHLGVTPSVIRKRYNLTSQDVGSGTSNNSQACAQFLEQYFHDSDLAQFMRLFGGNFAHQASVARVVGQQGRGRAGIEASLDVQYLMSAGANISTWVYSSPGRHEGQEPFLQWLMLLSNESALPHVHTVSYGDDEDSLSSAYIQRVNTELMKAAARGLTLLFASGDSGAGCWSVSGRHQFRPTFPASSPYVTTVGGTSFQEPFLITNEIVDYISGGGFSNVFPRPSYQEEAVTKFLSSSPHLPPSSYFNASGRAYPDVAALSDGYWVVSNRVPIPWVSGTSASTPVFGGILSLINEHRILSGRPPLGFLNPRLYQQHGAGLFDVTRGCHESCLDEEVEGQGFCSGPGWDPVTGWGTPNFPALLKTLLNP
UniProt O43399: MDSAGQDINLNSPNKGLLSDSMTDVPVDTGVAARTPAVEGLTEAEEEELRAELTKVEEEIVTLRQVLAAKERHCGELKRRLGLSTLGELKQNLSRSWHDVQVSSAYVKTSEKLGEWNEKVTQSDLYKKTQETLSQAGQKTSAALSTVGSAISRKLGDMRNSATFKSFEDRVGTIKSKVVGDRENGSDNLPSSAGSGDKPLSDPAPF
UniProt Q9NVV0: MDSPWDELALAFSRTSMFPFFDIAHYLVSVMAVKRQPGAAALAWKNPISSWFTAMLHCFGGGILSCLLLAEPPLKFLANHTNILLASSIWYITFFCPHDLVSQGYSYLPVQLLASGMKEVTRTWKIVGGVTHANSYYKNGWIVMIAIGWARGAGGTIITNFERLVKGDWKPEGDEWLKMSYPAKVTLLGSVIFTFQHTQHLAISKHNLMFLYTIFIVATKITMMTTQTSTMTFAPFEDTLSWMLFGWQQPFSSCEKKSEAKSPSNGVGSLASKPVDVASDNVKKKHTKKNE
UniProt Q13595: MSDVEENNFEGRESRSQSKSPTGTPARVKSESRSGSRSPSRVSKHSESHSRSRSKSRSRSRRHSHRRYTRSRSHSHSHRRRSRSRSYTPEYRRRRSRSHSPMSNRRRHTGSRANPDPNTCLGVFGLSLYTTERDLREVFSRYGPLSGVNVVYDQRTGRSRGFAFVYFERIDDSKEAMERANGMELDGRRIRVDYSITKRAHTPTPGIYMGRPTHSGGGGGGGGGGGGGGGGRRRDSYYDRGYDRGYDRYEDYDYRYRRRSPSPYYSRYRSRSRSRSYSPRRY
UniProt Q9NS69: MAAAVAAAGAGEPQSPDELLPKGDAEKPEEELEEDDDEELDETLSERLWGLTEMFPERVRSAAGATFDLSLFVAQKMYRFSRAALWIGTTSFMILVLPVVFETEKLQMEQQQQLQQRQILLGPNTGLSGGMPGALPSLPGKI
UniProt O60784, whole entry, looked up: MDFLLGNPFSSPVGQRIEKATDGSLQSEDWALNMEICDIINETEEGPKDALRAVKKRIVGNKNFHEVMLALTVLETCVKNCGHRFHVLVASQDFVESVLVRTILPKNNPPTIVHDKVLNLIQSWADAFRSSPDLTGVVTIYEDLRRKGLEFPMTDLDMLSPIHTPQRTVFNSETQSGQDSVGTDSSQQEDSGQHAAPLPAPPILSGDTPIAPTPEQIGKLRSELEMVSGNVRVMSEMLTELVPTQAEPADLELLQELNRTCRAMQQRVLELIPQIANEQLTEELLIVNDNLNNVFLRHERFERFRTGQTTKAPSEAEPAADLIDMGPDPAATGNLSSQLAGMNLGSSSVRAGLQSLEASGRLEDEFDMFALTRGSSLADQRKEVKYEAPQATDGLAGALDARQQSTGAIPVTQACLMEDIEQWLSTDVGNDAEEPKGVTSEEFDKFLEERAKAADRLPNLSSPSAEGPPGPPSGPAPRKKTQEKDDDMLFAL
UniProt Q9NYL9: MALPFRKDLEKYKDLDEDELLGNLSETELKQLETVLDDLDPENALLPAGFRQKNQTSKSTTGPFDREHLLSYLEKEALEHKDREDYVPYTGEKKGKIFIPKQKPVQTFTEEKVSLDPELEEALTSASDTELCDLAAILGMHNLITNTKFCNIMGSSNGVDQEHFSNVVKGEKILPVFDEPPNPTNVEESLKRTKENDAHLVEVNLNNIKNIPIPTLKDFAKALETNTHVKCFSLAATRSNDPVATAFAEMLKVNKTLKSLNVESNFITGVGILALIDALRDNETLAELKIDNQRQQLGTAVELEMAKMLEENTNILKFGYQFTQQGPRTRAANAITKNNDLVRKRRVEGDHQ
UniProt Q5BJF2, whole entry, looked up: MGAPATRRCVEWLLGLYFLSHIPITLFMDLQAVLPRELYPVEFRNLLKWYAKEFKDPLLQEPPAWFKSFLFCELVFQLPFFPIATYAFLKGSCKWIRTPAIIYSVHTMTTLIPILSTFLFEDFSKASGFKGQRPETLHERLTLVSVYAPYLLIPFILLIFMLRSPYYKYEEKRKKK
UniProt Q96MH6: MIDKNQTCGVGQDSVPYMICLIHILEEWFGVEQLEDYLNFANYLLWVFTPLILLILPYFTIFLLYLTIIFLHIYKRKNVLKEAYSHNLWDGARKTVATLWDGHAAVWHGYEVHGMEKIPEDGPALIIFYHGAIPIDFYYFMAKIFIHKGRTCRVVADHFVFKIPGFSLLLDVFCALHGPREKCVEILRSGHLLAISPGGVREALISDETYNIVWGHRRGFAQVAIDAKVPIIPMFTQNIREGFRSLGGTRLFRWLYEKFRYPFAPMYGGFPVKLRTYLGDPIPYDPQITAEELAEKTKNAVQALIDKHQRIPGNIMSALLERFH
UniProt P06753, whole entry, looked up: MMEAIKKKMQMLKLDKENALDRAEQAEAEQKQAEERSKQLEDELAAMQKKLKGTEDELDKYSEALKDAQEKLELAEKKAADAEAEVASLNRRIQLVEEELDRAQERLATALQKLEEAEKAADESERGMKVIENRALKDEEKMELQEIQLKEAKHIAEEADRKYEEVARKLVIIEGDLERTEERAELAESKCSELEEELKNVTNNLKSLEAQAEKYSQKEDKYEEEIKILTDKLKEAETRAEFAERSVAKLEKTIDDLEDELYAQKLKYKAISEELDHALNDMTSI
UniProt Q15025: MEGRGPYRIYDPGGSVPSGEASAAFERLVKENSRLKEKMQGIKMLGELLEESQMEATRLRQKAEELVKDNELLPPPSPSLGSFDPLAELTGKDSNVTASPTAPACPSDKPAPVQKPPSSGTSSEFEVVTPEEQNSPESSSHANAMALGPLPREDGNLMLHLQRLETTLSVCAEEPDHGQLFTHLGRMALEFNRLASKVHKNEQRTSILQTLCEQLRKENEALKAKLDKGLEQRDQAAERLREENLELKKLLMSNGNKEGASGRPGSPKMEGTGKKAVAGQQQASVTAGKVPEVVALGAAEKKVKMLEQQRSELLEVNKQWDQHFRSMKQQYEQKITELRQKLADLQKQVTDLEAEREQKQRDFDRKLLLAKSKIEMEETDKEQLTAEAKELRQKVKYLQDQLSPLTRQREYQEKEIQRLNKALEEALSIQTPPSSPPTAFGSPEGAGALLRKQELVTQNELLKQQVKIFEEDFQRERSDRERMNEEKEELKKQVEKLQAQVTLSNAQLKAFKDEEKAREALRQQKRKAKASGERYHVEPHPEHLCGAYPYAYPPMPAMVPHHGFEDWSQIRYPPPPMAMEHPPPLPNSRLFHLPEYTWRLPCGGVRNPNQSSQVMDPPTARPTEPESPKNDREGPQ
UniProt Q86XT9, whole entry, looked up: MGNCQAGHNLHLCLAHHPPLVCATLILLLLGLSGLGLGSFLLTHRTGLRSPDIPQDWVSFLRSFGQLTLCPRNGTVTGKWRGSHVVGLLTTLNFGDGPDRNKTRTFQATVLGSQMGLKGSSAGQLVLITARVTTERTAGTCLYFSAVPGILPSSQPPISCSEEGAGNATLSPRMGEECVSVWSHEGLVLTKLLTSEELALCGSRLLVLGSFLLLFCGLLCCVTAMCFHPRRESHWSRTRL
UniProt P51580: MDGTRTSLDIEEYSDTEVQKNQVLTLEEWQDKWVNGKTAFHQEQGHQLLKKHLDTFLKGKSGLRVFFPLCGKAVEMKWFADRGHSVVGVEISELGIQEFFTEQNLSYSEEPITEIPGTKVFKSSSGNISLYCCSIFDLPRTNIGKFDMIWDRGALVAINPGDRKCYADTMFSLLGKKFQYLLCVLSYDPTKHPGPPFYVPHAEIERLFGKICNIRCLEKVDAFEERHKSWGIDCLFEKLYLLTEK
UniProt Q53FA7: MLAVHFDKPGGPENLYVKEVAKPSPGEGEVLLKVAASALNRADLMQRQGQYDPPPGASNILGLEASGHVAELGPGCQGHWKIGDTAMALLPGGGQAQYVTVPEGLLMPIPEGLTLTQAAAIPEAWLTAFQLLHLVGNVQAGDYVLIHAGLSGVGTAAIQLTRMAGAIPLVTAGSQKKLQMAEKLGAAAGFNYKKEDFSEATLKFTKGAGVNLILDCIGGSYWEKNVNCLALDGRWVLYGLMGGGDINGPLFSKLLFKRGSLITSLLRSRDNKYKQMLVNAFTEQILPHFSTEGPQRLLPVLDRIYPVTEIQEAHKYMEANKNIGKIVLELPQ
UniProt P67936, whole entry, looked up: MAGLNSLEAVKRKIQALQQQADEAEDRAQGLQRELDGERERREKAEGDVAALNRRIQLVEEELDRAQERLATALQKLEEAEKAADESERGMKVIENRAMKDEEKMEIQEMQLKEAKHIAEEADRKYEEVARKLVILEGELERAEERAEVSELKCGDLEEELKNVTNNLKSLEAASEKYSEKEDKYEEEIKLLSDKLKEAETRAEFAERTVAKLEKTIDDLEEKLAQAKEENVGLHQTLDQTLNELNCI
UniProt P20333, whole entry, looked up: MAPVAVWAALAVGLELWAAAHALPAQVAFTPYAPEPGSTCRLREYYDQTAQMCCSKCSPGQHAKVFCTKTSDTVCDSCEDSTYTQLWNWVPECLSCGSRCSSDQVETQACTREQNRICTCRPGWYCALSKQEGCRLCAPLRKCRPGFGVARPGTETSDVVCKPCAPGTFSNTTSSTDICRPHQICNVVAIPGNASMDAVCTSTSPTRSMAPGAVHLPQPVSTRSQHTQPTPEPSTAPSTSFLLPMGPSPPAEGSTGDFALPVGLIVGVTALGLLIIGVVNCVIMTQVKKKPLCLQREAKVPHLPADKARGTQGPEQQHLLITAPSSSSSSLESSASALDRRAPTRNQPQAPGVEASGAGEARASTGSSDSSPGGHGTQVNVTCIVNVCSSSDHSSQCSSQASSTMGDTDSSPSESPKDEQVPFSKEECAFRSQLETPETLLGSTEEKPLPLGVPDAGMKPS
UniProt P28289: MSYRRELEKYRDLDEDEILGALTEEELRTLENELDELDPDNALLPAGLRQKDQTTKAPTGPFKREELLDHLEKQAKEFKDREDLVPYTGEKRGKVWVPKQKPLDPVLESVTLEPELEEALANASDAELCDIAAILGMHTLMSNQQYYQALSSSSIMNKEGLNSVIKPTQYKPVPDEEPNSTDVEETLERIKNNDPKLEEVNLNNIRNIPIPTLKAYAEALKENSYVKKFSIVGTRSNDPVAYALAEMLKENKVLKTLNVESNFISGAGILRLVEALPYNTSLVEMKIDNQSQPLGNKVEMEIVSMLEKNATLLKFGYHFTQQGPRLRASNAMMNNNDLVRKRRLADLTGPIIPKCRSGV

compound: CN1CCN(CCOc2cc(OC3CCOCC3)c3c(Nc4c(Cl)ccc5c4OCO5)ncnc3c2)CC1 [saracatinib]; assay: log2 fold change, soluble protein after heating vs DMSO (PISA); higher = thermal stabilisation; K562 lysate, 10 uM; active = over 0.2 and 3.5 SD of the protein, either way, in both replicates (recomputed)
Summary of the method: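 K562 pellets were dounce-homogenised in PBS pH 7.4 with 1 mM MgCl2, and the crude extract at 1 mg/mL protein was treated with 10 μM compound for 30 min. Aliquots were heated for 3 min across 48°C-58°C, pooled, and brought to 0.5% NP-40 at 4°C; soluble protein was the supernatant after 21,000xg for 90 min. Soluble protein was quantified by TMTpro 16plex LC-MS/MS with channel sums equalised, and reported as log2 fold change in thermal stability against DMSO controls, with values from duplicates.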

Target | log2 fold change
TMX3 (UniProt Q96JJ7) | inactive: 0.002
TOR3A (UniProt Q9H497) | inactive: 0.014
TMEM63B (UniProt Q5T3F8) | inactive: 0.044
TPP2 (UniProt P29144) | inactive: -0.016
TPP1 (UniProt O14773) | inactive: -0.002
TNIK isoform 4 (UniProt Q9UKE5) | inactive: 0.071
TPD52L2 isoform 7 (UniProt O43399) | inactive: 0.003
TMEM38B (UniProt Q9NVV0) | inactive: -0.034
TRA2A (UniProt Q13595) | inactive: 0.074
TOMM22 (UniProt Q9NS69) | inactive: -0.018
TPM1 isoform 4 (UniProt P09493) | inactive: 0.031
TOM1 isoform 2 (UniProt O60784) | inactive: 0.017
TMOD3 (UniProt Q9NYL9) | inactive: 0.012
TMEM97 (UniProt Q5BJF2) | inactive: 0.002
TMEM68 (UniProt Q96MH6) | inactive: -0.014
TPM3 isoform 2 (UniProt P06753) | inactive: -0.009
TPX2 (UniProt Q9ULW0) | inactive: 0.03

Nothing new here: entries from further up.
Target | log2 fold change
TMEM63B (UniProt Q5T3F8) | inactive: 0.044
TPP2 (UniProt P29144) | inactive: -0.016
TPP1 (UniProt O14773) | inactive: -0.002
TNIK isoform 4 (UniProt Q9UKE5) | inactive: 0.071
TPD52L2 isoform 7 (UniProt O43399) | inactive: 0.003
TMEM38B (UniProt Q9NVV0) | inactive: -0.034

Next part.

Target | log2 fold change
TOP1 (UniProt P11387) | inactive: 0.001
TNIP1 (UniProt Q15025) | inactive: 0.038
TOMM70 (UniProt O94826) | inactive: -0.018
TMEM219 (UniProt Q86XT9) | inactive: -0.019
TPMT (UniProt P51580) | inactive: -0.041
TP53I3 (UniProt Q53FA7) | inactive: 0.019
TPST2 (UniProt O60704) | inactive: 0.011
TOP2B isoform 2 (UniProt Q02880) | inactive: 0.033
TPM3 (UniProt P06753) | inactive: -0.011
TPM4 isoform 2 (UniProt P67936) | inactive: -0.001
TPI1 (UniProt P60174) | inactive: 0.025
TMEM87B (UniProt Q96K49) | inactive: -0.166
TNFRSF1B (UniProt P20333) | inactive: 0.03
TMEM245 (UniProt Q9H330) | inactive: 0.052
TONSL (UniProt Q96HA7) | inactive: -0.001
TMOD1 (UniProt P28289) | inactive: -0.001
